The list is a part of this screen's results and no random one: it is rich in T/C values a quarter to a half above the control, in often repeated tests (any T/C) and in doses without a T/C. Other doses and runs of a compound stand elsewhere. T/C gives the treated animals as a percentage of the vehicle group. Some entries give survivors of the animals treated and no T/C: the source holds a T/C of zero for them, seemingly a mark for toxic or unscored doses. Some doses without a T/C left all or most animals alive at the check, yet need not have been tolerated: survival well below the control is almost never listed, so the zero probably covers shortened survival too. Counts of survivors are from the toxicity check (mostly the fifth day) where no day follows; animals may have died later. Schedules are NCI's codes, taken here to give the interval after Q, in days (D) or hours (H), and the number of doses after X. Some schedule codes hold Z or #, which are not explained here. Where survival is the endpoint, this PubChem deposit counts one and a half times the control or more as active, and values a quarter to a half above the control carry no call in these data; other NCI protocols may use other cut-offs. Some doses were run more than once; the values are given in rising order. Some T/C values carry the count of animals alive at the toxicity check (mostly the fifth day); where none is given, no animal had died by that day.
Test system: L1210 leukemia ip in BDF1 mice, survival T/C
Experiment: NCI In Vivo Anticancer Drug Screen. Data for tumor model L1210 Leukemia (intraperitoneal) in B6D2F1 (BDF1) mice
Conditions: T/C endpoint: mean survival time, higher T/C = longer survival
[1] = dose: 100.0 mg/kg/injection, schedule: Q01DX009 (ip), vehicle: Klucel (hydroxypropylcellulose) (HPC)
[2] = dose: 200.0 mg/kg/injection, schedule: Q04DX003 (ip), vehicle: Klucel (hydroxypropylcellulose) (HPC)
[3] = dose: 400.0 mg/kg/injection, schedule: Q01DX009 (ip), vehicle: Klucel (hydroxypropylcellulose) (HPC)
[4] = dose: 400.0 mg/kg/injection, schedule: Q04DX003 (ip), vehicle: Klucel (hydroxypropylcellulose) (HPC)
[5] = dose: 400.0 mg/kg/injection, schedule: Q04DX002 (ip), vehicle: Klucel (hydroxypropylcellulose) (HPC)
[6] = dose: 400.0 mg/kg/injection, schedule: Q04DX002 (ip), vehicle: saline
[7] = dose: 400.0 mg/kg/injection, schedule: Q01DX009 (ip), vehicle: saline with Tween-80
[8] = dose: 400.0 mg/kg/injection, schedule: Q01DX009 (ip), vehicle: saline
[9] = dose: 200.0 mg/kg/injection, schedule: Q01DX009 (ip), vehicle: saline
[10] = dose: 400.0 mg/kg/injection, schedule: Q04DX003 (ip), vehicle: saline
[11] = dose: 400.0 mg/kg/injection, schedule: Q01DX001 (ip), vehicle: saline
[12] = dose: 200.0 mg/kg/injection, schedule: Q01DX009 (ip), vehicle: Klucel (hydroxypropylcellulose) (HPC)
[13] = dose: 200.0 mg/kg/injection, schedule: Q01DX001 (ip), vehicle: saline
[14] = dose: 120.0 mg/kg/injection, schedule: Q01DX Z (ip), vehicle: saline
[15] = dose: 400.0 mg/kg/injection, schedule: Q01DX001 (ip), vehicle: carboxymethylcellulose (CMC)

Which results are given for `CCCCN(C)N=Nc1c(Cl)cc(Cl)cc1C(N)=O`?
T/C [1]: 143 % of control; T/C (dose: 177.0 mg/kg/injection, schedule: Q04DX003 (ip), vehicle: Klucel (hydroxypropylcellulose) (HPC)): 128 % of control; T/C [2]: 132 % of control; T/C (dose: 264.0 mg/kg/injection, schedule: Q04DX003 (ip), vehicle: Klucel (hydroxypropylcellulose) (HPC)): 138 % of control; T/C (dose: 400.0 mg/kg/injection, schedule: Q01DX001 (ip), vehicle: other): 129 % of control; survivor count [3]: 0 of 6; T/C [4]: 134 % of control; T/C (dose: 600.0 mg/kg/injection, schedule: Q01DX001 (ip), vehicle: Klucel (hydroxypropylcellulose) (HPC)): 138 % of control [5 of 6 alive]; survivor count (dose: 600.0 mg/kg/injection, schedule: Q04DX003 (ip), vehicle: Klucel (hydroxypropylcellulose) (HPC)): 4 of 6

For `c1ccc(N=C(Nc2ccccc2)Nc2ccccc2)cc1`, which survivor count (dose: 200.0 mg/kg/injection, schedule: Q04DX002 (ip), vehicle: Klucel (hydroxypropylcellulose) (HPC)) is on record?
Its survivor count is 1 of 3.

What about the survivor count [5] of the same molecule?
The survivor count was 0 of 3.

Which survivor count (dose: 200.0 mg/kg/injection, schedule: Q04DX002 (ip), vehicle: saline) does the source give for `CCCCOCc1c(CO)cnc(C)c1O` here?
The survivor count was 1 of 3.

What about the survivor count [6] of the same molecule?
Its survivor count is 0 of 3.

With `CCCCS(=O)/C=C\S(=O)CCCC` (configuration not stated) as the molecule, how does the survivor count [6] read?
Its survivor count is 0 of 3.

How did the survivor count [3] turn out when `CS(=O)(=O)c1nnc(-c2ccccc2)s1` was run?
The survivor count was 6 of 6.

How did the survivor count (dose: 100.0 mg/kg/injection, schedule: Q01DX009 (ip), vehicle: saline with Tween-80) turn out when `FC(F)(F)c1cccc(-c2nc3nc(Cl)c(Cl)nc3[nH]2)c1` was run?
Its survivor count is 3 of 6.

What about the survivor count (dose: 200.0 mg/kg/injection, schedule: Q01DX009 (ip), vehicle: saline with Tween-80) of the same molecule?
The survivor count was 0 of 6.

And the survivor count [7]?
Its survivor count is 0 of 6.

Which survivor count [8] does the source give for `CCN(CC)CCN(C)C` here?
Its survivor count is 0 of 6.

Which survivor count [9] does the source give for `CC1C[N-]1.CC1C[N-]1.[Cl][Pt+2][Cl]` (configuration not stated) here?
The survivor count was 0 of 6.

What about the survivor count [10] of the same molecule?
Its survivor count is 0 of 6.

Which results are given for `Cc1cc(C(C)(CC(C)C)c2ccc(O)c(C)c2)ccc1O`?
survivor count (dose: 200.0 mg/kg/injection, schedule: Q01DX009 (ip), vehicle: gum acacia): 6 of 6; survivor count (dose: 400.0 mg/kg/injection, schedule: Q01DX009 (ip), vehicle: gum acacia): 0 of 6

`CN1C(=O)C2(c3ccccc31)C1CC3C(CO1)C1C2C3(CO)C[N+]1(C)C` (configuration not stated) was tested. Which survivor count [11] did it give?
Its survivor count is 0 of 6.

With `CCOC(=O)c1ccc(C(=O)OCC)c(C#N)n1` as the molecule, how does the survivor count [3] read?
Its survivor count is 6 of 6.

For `CCOC(=O)CCC[P+](c1ccccc1)(c1ccccc1)c1ccccc1`, which survivor count [7] is on record?
The survivor count was 0 of 6.

How did the survivor count [1] turn out when `COc1ccc(N=NN(C)C)c(C(=O)O)c1` was run?
Its survivor count is 0 of 6.

And the survivor count [12]?
The survivor count was 0 of 6.

What about the survivor count [3] of the same molecule?
The survivor count was 0 of 6.

With `C[N+](C)(C)C(=O)c1ccccc1` as the molecule, how does the survivor count [13] read?
The survivor count was 0 of 4.

And the survivor count [11]?
Its survivor count is 0 of 4.

For `Cc1c(C)c([N+](=O)[O-])c(/C=C/C(=O)O)c(C)c1[N+](=O)[O-]`, which survivor count [4] is on record?
Its survivor count is 6 of 6.

With `CN(C)C(=S)c1ccc(Cl)cc1` as the molecule, how does the survivor count (dose: 50.0 mg/kg/injection, schedule: Q01DX009 (ip), vehicle: Klucel (hydroxypropylcellulose) (HPC)) read?
The survivor count was 2 of 6.

And the survivor count [1]?
Its survivor count is 0 of 6.

And the survivor count [12]?
Its survivor count is 0 of 6.

What about the survivor count [3] of the same molecule?
The survivor count was 0 of 6.

For `Cc1cc2[nH]c(=O)c(=O)[nH]c2cc1C`, which survivor count [3] is on record?
The survivor count was 1 of 6.

Which results are given for `CN=C(NC(C)C)c1ccc(NC(=O)c2ccc(C(=O)Nc3ccc(C(=NC)NC(C)C)cc3)cc2)cc1`?
T/C (dose: 8.0 mg/kg/injection, schedule: Q01DX Z (ip), vehicle: carboxymethylcellulose (CMC)): 143 and 148 % of control; survivor count (dose: 31.0 mg/kg/injection, schedule: Q01DX Z (ip), vehicle: carboxymethylcellulose (CMC)): 0 of 6; survivor count (dose: 62.0 mg/kg/injection, schedule: Q01DX Z (ip), vehicle: carboxymethylcellulose (CMC)): 0 of 6

Which survivor count [14] does the source give for `N/N=C(\N)c1ccc(NC(=O)c2ccc(C(=O)Nc3ccc(/C(N)=N/N)cc3)cc2)cc1` here?
Its survivor count is 5 of 6.

And the survivor count (dose: 240.0 mg/kg/injection, schedule: Q01DX Z (ip), vehicle: saline)?
The survivor count was 3 of 6.

Which survivor count (dose: 100.0 mg/kg/injection, schedule: Q04DX003 (ip), vehicle: saline) does the source give for `CC(C)C[As](=O)(O)CC(C)C` here?
The survivor count was 2 of 6.

What does the source list for `CS(=O)(=O)OCCN(CCOS(C)(=O)=O)c1ccc(C=Nc2cc(Cl)c(O)c(Cl)c2)cc1`?
survivor count [2]: 6 of 6; survivor count [4]: 5 of 6

`Nc1nccnc1N` was tested. Which survivor count [9] did it give?
Its survivor count is 2 of 6.

What about the survivor count [11] of the same molecule?
Its survivor count is 3 of 6.

For `O=C(O)c1cc(Br)cc(Cl)c1Br`, which survivor count [5] is on record?
The survivor count was 3 of 3.

`Cc1ccc(NC(=O)Nc2onc(C)c2C)c([N+](=O)[O-])c1` was tested. Which survivor count [2] did it give?
The survivor count was 5 of 6.

And the survivor count [4]?
Its survivor count is 6 of 6.

Which survivor count [5] does the source give for `CN1CCC2(CC1)C(=O)N(Nc1ccccc1)C(=O)C2c1ccccc1` (configuration not stated) here?
Its survivor count is 0 of 3.

Which results are given for `CS(=O)(=O)c1nc(N)nc2nc[nH]c12`?
T/C (dose: 30.0 mg/kg/injection, schedule: Q01DX Z (ip), vehicle: carboxymethylcellulose (CMC)): 144 % of control; survivor count (dose: 120.0 mg/kg/injection, schedule: Q01DX Z (ip), vehicle: carboxymethylcellulose (CMC)): 0 of 6; survivor count (dose: 150.0 mg/kg/injection, schedule: Q01DX Z (ip), vehicle: methylcellulose (MC)): 2 of 6; survivor count (dose: 240.0 mg/kg/injection, schedule: Q01DX Z (ip), vehicle: carboxymethylcellulose (CMC)): 0 of 6; survivor count (dose: 250.0 mg/kg/injection, schedule: Q01DX Z (ip), vehicle: methylcellulose (MC)): 0 of 6; survivor count [15]: 0 of 6

For `CN=C(NC)c1ccc(NC(=O)c2cccc(C(=O)Nc3ccc(C(=NC)NC)cc3)c2)cc1`, which survivor count [14] is on record?
The survivor count was 1 of 6.

`BrC1(c2ccccc2)C(c2ccccc2)=C1c1ccccc1` was tested. Which survivor count [15] did it give?
The survivor count was 1 of 4.

How did the survivor count [10] turn out when `CCCOC(CN)C(Cl)(Cl)Cl` (configuration not stated) was run?
Its survivor count is 2 of 6.

How did the T/C (dose: 2.0 mg/kg/injection, schedule: Q01DX009 (ip), vehicle: Klucel (hydroxypropylcellulose) (HPC)) turn out when `COc1ccc(NC(=O)N(CCCl)N=O)cc1OC` was run?
Its T/C is 145 % of control.

What about the T/C (dose: 2.6 mg/kg/injection, schedule: Q01DX009 (ip), vehicle: Klucel (hydroxypropylcellulose) (HPC)) of the same molecule?
The T/C was 125 % of control.

And the T/C (dose: 10.0 mg/kg/injection, schedule: Q01DX001 (ip), vehicle: carboxymethylcellulose (CMC))?
Its T/C is 138 % of control.

What about the survivor count (dose: 22.5 mg/kg/injection, schedule: Q01DX009 (ip), vehicle: carboxymethylcellulose (CMC)) of the same molecule?
The survivor count was 6 of 6.

What about the survivor count (dose: 30.0 mg/kg/injection, schedule: Q01DX009 (ip), vehicle: Klucel (hydroxypropylcellulose) (HPC)) of the same molecule?
Its survivor count is 6 of 6.

And the survivor count (dose: 45.0 mg/kg/injection, schedule: Q01DX009 (ip), vehicle: Klucel (hydroxypropylcellulose) (HPC))?
The survivor count was 6 of 6.

And the survivor count (dose: 75.0 mg/kg/injection, schedule: Q01DX001 (ip), vehicle: carboxymethylcellulose (CMC))?
Its survivor count is 6 of 6.

What about the survivor count (dose: 150.0 mg/kg/injection, schedule: Q01DX001 (ip), vehicle: carboxymethylcellulose (CMC)) of the same molecule?
The survivor count was 3 of 6.

What about the survivor count (dose: 300.0 mg/kg/injection, schedule: Q01DX001 (ip), vehicle: carboxymethylcellulose (CMC)) of the same molecule?
The survivor count was 0 of 6.

How did the survivor count (dose: 480.0 mg/kg/injection, schedule: Q01DX Z (ip), vehicle: saline) turn out when `CC/C=N\N=C(N)N` was run?
Its survivor count is 0 of 6.

With `C[N+](C)(CCOc1ccccc1)Cc1cccs1` as the molecule, how does the survivor count [13] read?
Its survivor count is 1 of 4.

And the survivor count [11]?
Its survivor count is 0 of 4.

How did the survivor count (dose: 100.0 mg/kg/injection, schedule: Q01DX009 (ip), vehicle: saline) turn out when `CCCCCCCCCCCCCCCC(=O)N(CCCN)CCCCCCCCCN(CCCN)C(=O)CCCCCCCCCCCCCCC` was run?
Its survivor count is 3 of 6.

What about the survivor count (dose: 200.0 mg/kg/injection, schedule: Q04DX003 (ip), vehicle: saline) of the same molecule?
The survivor count was 1 of 6.

And the survivor count [10]?
Its survivor count is 1 of 6.

With `NCCc1ccc(F)cc1` as the molecule, how does the survivor count [8] read?
The survivor count was 0 of 6.

How did the survivor count [7] turn out when `COc1cc(CCl)c(OC)cc1Cl` was run?
The survivor count was 5 of 6.
